From US11447471B2, “α,β-unsaturated amide compound” (KYOWA KIRIN CO., LTD., priority 2017, dated 2022)
Some entries share one result that the patent states for a list of compounds.

Test system: NCI-H226 cells
Assay: Cell growth inhibitory effect on human mesothelioma cell line (cell counting kit 8, 6 days)
Type: cell-based
Conditions: human mesothelioma cell line NCI-H226, 6 days incubation; group with GI50 of 100 nmol/L to 1 μmol/L (lower bound in nmol/L, upper bound in μmol/L)
Excerpt: NCI-H226 cells, a human mesothelioma cell line (ATCC, CRL-5826), NCI-H322 cells, a human lung cancer cell line (the European Collection of Authenticated Cell Cultures, 95111734), OUTOKO cells, a human ovarian cancer cell line (JCRB cell bank, KRB1048) and […] were each subcultured by keeping the cell density under 80% in a RPMI1640 culture medium with 10% fetal bovine serum (FBS). NCI-H226 cells, NCI-H322 cells and SSP-25 cells were each suspended in the RPMI1640 culture medium mentioned above, and plated to a 96-well flat-bottom plate at 500 cells/well in each well, and incubated at 37° C. in an incubator with 5% CO2 for one day. After the incubation, the evaluation of cell growth inhibitory activity was started. OVTOKO cells were suspended in the RPMI1640 culture medium mentioned above, and plated to a 96-well flat-bottom plate at 250 cells/well in each well, and incubated it at 37° C. in an incubator with 5% CO2 for one day. After the incubation, the evaluation of the cell growth inhibitory activity was started. The next day, a test compound was serially diluted to 5 times of its final concentration in the RPM11640 culture medium mentioned above, and the diluted solution was added to each well. […] After the reaction, an absorbance at wavelength of 450 nm was measured using a microplate reader. […]

## C=CC(=O)NC1COc2c(cccc2Oc2ccc(S(=O)(=O)C(F)(F)F)cc2)C1 (stereo not shown) [Compound 159, N-(8-[{4-(Trifluoromethyl)sulfonyl}phenoxy]chroman-3-yl)acrylamide]
  GI50: 100 to 1000 nM
